# Results published in article PMC3603962.
# These are yes or no findings as the source states them, for the method shown. In cells and extracts the contact can be indirect. Some binding calls cover weakened binding; strength is not graded here. Where a sequence is shown, tags or fusion partners need not be part of it.
# T1: Mei-P26 (endogenous, ovary) (Drosophila (endogenous in ovaries)) (UniProt M9PH32)
# T1 sequence: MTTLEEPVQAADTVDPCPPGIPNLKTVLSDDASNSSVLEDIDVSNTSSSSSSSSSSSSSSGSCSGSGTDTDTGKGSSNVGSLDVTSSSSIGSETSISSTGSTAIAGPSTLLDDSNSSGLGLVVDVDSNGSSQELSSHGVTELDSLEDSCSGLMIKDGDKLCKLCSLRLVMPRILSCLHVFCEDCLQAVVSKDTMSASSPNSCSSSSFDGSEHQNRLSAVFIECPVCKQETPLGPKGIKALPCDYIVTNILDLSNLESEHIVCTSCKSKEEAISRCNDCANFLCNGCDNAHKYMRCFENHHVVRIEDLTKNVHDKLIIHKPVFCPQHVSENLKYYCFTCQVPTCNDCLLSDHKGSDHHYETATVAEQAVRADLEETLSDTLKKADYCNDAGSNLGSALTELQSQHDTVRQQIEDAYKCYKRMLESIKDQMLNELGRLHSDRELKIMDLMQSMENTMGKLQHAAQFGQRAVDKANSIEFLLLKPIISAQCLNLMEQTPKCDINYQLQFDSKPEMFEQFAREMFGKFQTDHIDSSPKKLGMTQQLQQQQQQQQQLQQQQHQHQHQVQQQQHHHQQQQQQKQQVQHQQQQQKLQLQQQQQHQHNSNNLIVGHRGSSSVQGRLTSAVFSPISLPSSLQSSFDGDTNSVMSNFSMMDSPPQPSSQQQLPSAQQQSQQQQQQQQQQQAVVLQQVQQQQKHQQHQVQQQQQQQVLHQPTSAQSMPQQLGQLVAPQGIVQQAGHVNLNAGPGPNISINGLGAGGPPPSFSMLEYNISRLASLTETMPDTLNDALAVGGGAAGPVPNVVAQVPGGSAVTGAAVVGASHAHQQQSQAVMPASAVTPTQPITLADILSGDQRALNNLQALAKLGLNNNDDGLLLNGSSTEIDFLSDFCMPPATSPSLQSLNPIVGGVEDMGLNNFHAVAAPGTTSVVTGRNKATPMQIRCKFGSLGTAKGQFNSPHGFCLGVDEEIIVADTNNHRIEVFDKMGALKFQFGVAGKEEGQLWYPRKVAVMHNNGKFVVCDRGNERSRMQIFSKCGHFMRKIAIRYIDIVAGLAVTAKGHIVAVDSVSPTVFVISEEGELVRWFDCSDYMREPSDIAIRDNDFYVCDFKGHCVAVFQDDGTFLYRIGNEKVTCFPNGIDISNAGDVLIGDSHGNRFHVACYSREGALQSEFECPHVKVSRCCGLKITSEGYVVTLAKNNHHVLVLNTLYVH
# Molecular target: T1, Mei-P26 (endogenous, ovary) (Drosophila (endogenous in ovaries))
# Assay: co-IP; extracts of 100 pairs of wild-type ovaries or 200 pairs of bam mutant ovaries (also ovaries with heat-shock induced Bam::HA; newly eclosed females); immunoprecipitation with anti-Mei-P26 antibodies, blots probed with anti-HA, anti-GFP, anti-Sxl
row,Binder,binding
1,"GFP-tagged Bgcn (protein, UniProt Q9W1I2 1-1215) MNHIIQDKYIPQQLLYFLAGRRCCQQFPCTFRTSEHEAFANNARSLGLRSQVVHVNGNSCVKVYKQACRHYLEEPKTLVLSSGATLNMFTLLSRKSLMGKEDLELYADLVSMKANASDLPSLHLPLPAIRPPNLRFWTEAQLNFLTAFLGHSLSDEILQSLYASRVIVYNAALCWDKSVFLPLVILDDCRNKKSNVKIMCIERQAILATYNSQRTANFFGEQLGETVGIQLPYFSAVSSSTFIIYSTAQYFLRSLTSQQFRNISHLVVNDVHLHDPYTDILLSEIRMALSSHQNLRVVLLSQMGNPKKFTDFFGEGLQLNMIKQPEVAPRVSYLNELHSCIALAGIHKGPDIYKEIPEAFRANNPRNEQMDKCLQAYGELGTDAALRPFLYAVNYDLAPVNYRHSLTGKTAVHFASELNKANHLRLLLFMGADPYIVDLFQQNAISLAAMNGNHECIDVLNSYSLHGYVVKSAKPDFVDYDLIIDIMYLLRTKPEYSPGEYSPGNILIILPTYYHIVKLNYMILSHCLTGSLQECSIFLLYDNMRNDYLQALVNASDETVKVVLATDIIESLCLKVPFKYQIDTACRLNNVYDTTSCSGDDRFEWVAKDALLRRELILQPNKGDVQCFRLISKEAYEELSETSQPSLQTMQLDKICLAVKLLSPNTIISEYLGITISPPPLINVHHAVQFLKKIDVLDDAEDVTWLGCRLMDIPVSCQLGRMLIFGILLRCLDPILTIVSSLSTADPLGIPFTEDIDNLWDRFTIYIQNSIKKERTYLSDNQFSDHFIFVRLYKEWQNRMHNRTPPLYLKDEYEFMLNGLMEQLTSIRSEIVSSLRAANLIHSRGKLSMNNLNQMSCNWHMVKAALTGGMYPNIYAVDTRKSSLKSAFSGNVSMHPNTVLRDFLEPLNISAQSFRTPWIVCNRQKSHIVYATLVVPLAVAMFSGHPRIRLSPICDSEMSLTDRNVNVFIDEWIWMVMSKATAEMVMRTRYYFFKMYHDLLKHCSELDMWRRDCEPVSQYTVLTDTLSKIFESEDGFVGFFKPPPITFLPTPQLPSLYLLSVNAHFSWAREVEENMLSKPHHFNSHFIERQFFVLYAGGDCEEFHSRNTPAFIESVLGKFVRPIDTPNRHIFVILYRKDPDMMLSISRAKFVNGVFMLQEYFRNNIPVFEILDACVSLNVQTPVFDGRLMSALIDKRVGNLIMELFAFRHHWIHKR",binds
2,"Sex-Lethal (Sxl) protein (endogenous, ovary) (protein, UniProt P19339 1-354) MYGNNNPGSNNNNGGYPPYGYNNKSSGGRGFGMSHSLPSGMSRYAFSPQDTEFSFPSSSSRRGYNDFPGCGGSGGNGGSANNLGGGNMCHLPPMASNNSLNNLCGLSLGSGGSDDLMNDPRASNTNLIVNYLPQDMTDRELYALFRAIGPINTCRIMRDYKTGYSFGYAFVDFTSEMDSQRAIKVLNGITVRNKRLKVSYARPGGESIKDTNLYVTNLPRTITDDQLDTIFGKYGSIVQKNILRDKLTGRPRGVAFVRYNKREEAQEAISALNNVIPEGGSQPLSVRLAEEHGKAKAAHFMSQMGVVPANVPPPPPQPPAHMAAAFNMMHRGRSIKSQQRFQNSHPYFDAKKFI",binds
3,"Bam::HA (protein, UniProt P22745 1-442) MLNARDVCPEGNDDQQLDHNFKQMEEHLALMVEGNENEDPRKATCEYEDTNEDGATCTSGVLSEIQENFGRLRLCDVTAPLLEFHGLDCLQQIQKRSRHFAFDGSPAKKSRSGGVLVTGPKQKQLQKENVWNRKSKGSASADNIEKLPITIEKLHMIGLHGDCLEHNAVLRLMNLFRSLHDHLTADLGFSRQNSMPSDYLFDMPVKSTMPKSLNVRYQLQVLCTKVERFLVQQRRTLEANRHFDFEKYDECDKLLKGFASYLDNFKLLLKPKMRNRNGNSGSNADKFHTQRMERLLIGLRDWIKAAHLSVHVFNWEMDLEHRYSGAMTESHKSLNERAILLSGAELRAAEARGISAEDLFIAQRYKLGGPIYCVLEQHEFLSALIANPETYFPPSVVAICGPQKLGAVSMEQPSASEEEFEETEEVPSSPPRHTGRVPRFRS",binds
